These are yes or no findings as the source states them, for the method shown. In cells and extracts the contact can be indirect. Here binding means that the protein was enriched with, or labelled near, the bait; the list need not be complete.

For the assay, the target named is HD2A-FLAG (pHD2A:HD2A-FLAG transgene) (Arabidopsis thaliana). The assay can be described thus: affinity purification with mass spectrometry; IP-MS: lysate of 10 g unopened floral buds of FLAG-tag transgenic plants (Col-0 wild type as control) in IP buffer, anti-FLAG M2 magnetic beads, 4 °C for 2 h, eluted with 3xFLAG peptides, TCA precipitation, MS.

B1: HD2C (enzyme, UniProt Q9LZR5 1-294)
chain: MEFWGVEVKNGKPLHLDPGLDRLVHISQVALGESKNNVTEPIQLYVTVGSDKLLIGTLSHEKFPQLSTEIVLERNFALSHTWKNGSVFFSGYKVDASDPEPEDLIDDQLEAAGFKAAPKSAAKQVNFQLPNEDVKAKQDDDADGSEEDSSDDDDSENSGDEEEEKVTAESDSEEDDSSDDEEDDSSEEETPKKPEEPKKRSAEPNSSKNPASNKKAKFVTPQKTDSKKPHVHVATPHPSKQAGKNSGGGSTGETSKQQQTPKSAGAFGCKSCTRTFTSEMGLQSHTKAKHSAAA
Consider B1, for which the binding result is on record as “binds”.

B2: HD2B (enzyme, UniProt Q56WH4 1-306)
chain: MEFWGVAVTPKNATKVTPEEDSLVHISQASLDCTVKSGESVVLSVTVGGAKLVIGTLSQDKFPQISFDLVFDKEFELSHSGTKANVHFIGYKSPNIEQDDFTSSDDEDVPEAVPAPAPTAVTANGNAGAAVVKADTKPKAKPAEVKPAEEKPESDEEDESDDEDESEEDDDSEKGMDVDEDDSDDDEEEDSEDEEEEETPKKPEPINKKRPNESVSKTPVSGKKAKPAAAPASTPQKTEEKKKGGHTATPHPAKKGGKSPVNANQSPKSGGQSSGGNNNKKPFNSGKQFGGSNNKGSNKGKGKGRA
Regarding B2, the binding result is “binds”.

These data come from article PMC10027610.
